Values quoted from earlier work in PMC6161897, “The novel NADPH oxidase 4 selective inhibitor GLX7013114 counteracts human islet cell death in vitro” (PLoS ONE, 2018).

Settings: cited from earlier work

SMILES	Endogenous redox activity (DPPH)
CCOC(=O)c1c(NC(=O)CN2CCN(C(=O)c3ccco3)CC2)sc2c1CCC2 [GLX351322]	No
O=[N+]([O-])c1cccc(C2Nc3ccc([N+](=O)[O-])cc3C3C=CCC32)c1 (centres unmarked) [Phox-I2]	No
